# Data reported in the supplement of paper PMC8728848.
# This is one part of the list.
# B1: CREG (Mus musculus), O88668 (protein)
# chain: MAARAPELARSLLAALLAPALVALLVSPASGRGGRDHGDWDVDRRLPPLPPREDGPRVARFVTHVSDWGSLATISTIKEVRGWPFADIISISDGPPGEGTGEPYMYLSPLQQAVSDLQENPEATLTMSLAQTVYCRNHGFDPQSPLCVHIMMSGTVTKVNKTEEDYARDSLFVRHPEMKHWPSSHNWFFAKLKISRIWVLDYFGGPKVVTPEEYFNVTLQ
# How the values were obtained:
# Experiment in all cases: glycan array binding signal (z-score within array); higher = stronger binding
# Conditions in all cases: glycan notation: IUPAC condensed, linker removed
# [1] = molecular target: GlcNAc(a1-4)Gal(b1-4)GalNAc
# Method in brief: (§1)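 Glycan array data came from 3228 arrays in the Consortium for Functional Glycomics database, and only arrays with an available protein sequence were kept. Glycan names were put into IUPAC-condensed notation, and columns mapping to the same glycan were averaged. The binding signal is a within-array Z-score, averaged across arrays of one protein sequence run at different concentrations or buffers and across linkers. A negative Z-score can be read as non-binding.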
# [2] = molecular target: GlcNAc(a1-4)Gal(b1-4)GlcNAc
# Method in brief: as §1
# [3] = molecular target: GlcNAc(a1-4)Gal(b1-4)GlcNAc(b1-3)Gal(b1-4)Glc
# Method in brief: as §1
# [4] = molecular target: GlcNAc(a1-4)Gal(b1-4)GlcNAc(b1-3)Gal(b1-4)GlcNAc
# Method in brief: as §1
# [5] = molecular target: GlcNAc(a1-4)Gal(b1-4)GlcNAc(b1-3)Gal(b1-4)GlcNAc(b1-3)Gal(b1-4)GlcNAc
# Method in brief: as §1
# [6] = molecular target: GlcNAc(a1-4)Gal(b1-4)GlcNAc(b1-3)Gal(b1-4)[Fuc(a1-3)]GlcNAc(b1-3)Gal(b1-4)[Fuc(a1-3)]GlcNAc
# Method in brief: as §1
# [7] = molecular target: GlcNAc(a1-6)Gal(b1-4)GlcNAc
# Method in brief: as §1
# [8] = molecular target: GlcNAc(b1-2)Gal(b1-3)GalNAc
# Method in brief: as §1
# [9] = molecular target: GlcNAc(b1-2)Man(a1-3)[GlcNAc(b1-2)Man(a1-6)]Man(b1-4)GlcNAc(b1-4)GlcNAc
# Method in brief: as §1
# [10] = molecular target: GlcNAc(b1-2)Man(a1-3)[GlcNAc(b1-2)Man(a1-6)]Man(b1-4)GlcNAc(b1-4)[Fuc(a1-6)]GlcNAc
# Method in brief: as §1
# [11] = molecular target: GlcNAc(b1-2)[GlcNAc(b1-4)]Man(a1-3)[GlcNAc(b1-2)Man(a1-6)]Man(b1-4)GlcNAc(b1-4)GlcNAc
# Method in brief: as §1
# GlcNAc(b1-3)Gal = molecular target: GlcNAc(b1-3)Gal
# Method in brief: as §1
# [12] = molecular target: GlcNAc(b1-3)Gal(b1-3)GalNAc
# Method in brief: as §1
# GlcNAc(b1-3)Gal(b1-4)Glc = molecular target: GlcNAc(b1-3)Gal(b1-4)Glc
# Method in brief: as §1
# [13] = molecular target: GlcNAc(b1-3)Gal(b1-4)GlcNAc
# Method in brief: as §1
# [14] = molecular target: GlcNAc(b1-3)Gal(b1-4)GlcNAc(b1-3)Gal(b1-4)GlcNAc
# Method in brief: as §1
# GlcNAc(b1-3)GalNAc = molecular target: GlcNAc(b1-3)GalNAc
# Method in brief: as §1
# GlcNAc(b1-3)Man = molecular target: GlcNAc(b1-3)Man
# Method in brief: as §1
# [15] = molecular target: GlcNAc(b1-3)[GlcNAc(b1-4)][GlcNAc(b1-6)]GlcNAc
# Method in brief: as §1
# [16] = molecular target: GlcNAc(b1-3)[GlcNAc(b1-6)]Gal(b1-4)GlcNAc
# Method in brief: as §1
# [17] = molecular target: GlcNAc(b1-3)[GlcNAc(b1-6)]GalNAc
# Method in brief: as §1
# [18] = molecular target: GlcNAc(b1-4)Gal(b1-4)GlcNAc
# Method in brief: as §1
# GlcNAc(b1-4)GlcNAc = molecular target: GlcNAc(b1-4)GlcNAc
# Method in brief: as §1
# [19] = molecular target: GlcNAc(b1-4)GlcNAc(b1-4)GlcNAc
# Method in brief: as §1
# [20] = molecular target: GlcNAc(b1-4)GlcNAc(b1-4)GlcNAc(b1-4)GlcNAc(b1-4)GlcNAc
# Method in brief: as §1
# [21] = molecular target: GlcNAc(b1-4)GlcNAc(b1-4)GlcNAc(b1-4)GlcNAc(b1-4)GlcNAc(b1-4)GlcNAc
# Method in brief: as §1
# [22] = molecular target: GlcNAc(b1-4)[GlcNAc(b1-6)]GalNAc
# Method in brief: as §1
# [23] = molecular target: GlcNAc(b1-6)Gal(b1-4)GlcNAc
# Method in brief: as §1
# GlcNAc(b1-6)GalNAc = molecular target: GlcNAc(b1-6)GalNAc
# Method in brief: as §1
# GlcNAc3Prop(b1-4)GlcNAc = molecular target: GlcNAc3Prop(b1-4)GlcNAc
# Method in brief: as §1
# [24] = molecular target: GlcNAc6S(b1-3)Gal(b1-4)GlcNAc
# Method in brief: as §1
# Kdn(a2-3)Gal(b1-3)GalNAc = molecular target: Kdn(a2-3)Gal(b1-3)GalNAc
# Method in brief: as §1
# Kdn(a2-3)Gal(b1-3)GlcNAc = molecular target: Kdn(a2-3)Gal(b1-3)GlcNAc
# Method in brief: as §1
# Kdn(a2-3)Gal(b1-4)Glc = molecular target: Kdn(a2-3)Gal(b1-4)Glc
# Method in brief: as §1
# Kdn(a2-3)Gal(b1-4)GlcNAc = molecular target: Kdn(a2-3)Gal(b1-4)GlcNAc
# Method in brief: as §1
# [25] = molecular target: Kdn(a2-3)Gal(b1-4)[Fuc(a1-3)]GlcNAc
# Method in brief: as §1
# Kdn(a2-6)Gal(b1-4)GlcNAc = molecular target: Kdn(a2-6)Gal(b1-4)GlcNAc
# Method in brief: as §1
# [26] = molecular target: Man(a1-2)Man(a1-2)Man(a1-3)Man
# Method in brief: as §1
# [27] = molecular target: Man(a1-2)Man(a1-2)Man(a1-6)[Man(a1-3)]Man
# Method in brief: as §1
# Man(a1-2)Man(a1-3)Man = molecular target: Man(a1-2)Man(a1-3)Man
# Method in brief: as §1
# [28] = molecular target: Man(a1-2)Man(a1-3)[Man(a1-2)Man(a1-6)]Man
# Method in brief: as §1
# [29] = molecular target: Man(a1-2)Man(a1-3)[Man(a1-2)Man(a1-6)]Man(a1-6)[Man(a1-2)Man(a1-2)Man(a1-3)]Man
# Method in brief: as §1
# [30] = molecular target: Man(a1-2)Man(a1-3)[Man(a1-2)Man(a1-6)]Man(a1-6)[Man(a1-2)Man(a1-2)Man(a1-3)]Man(b1-4)GlcNAc(b1-4)GlcNAc
# Method in brief: as §1
# [31] = molecular target: Man(a1-2)Man(a1-3)[Man(a1-6)]Man(a1-6)[Man(a1-2)Man(a1-3)]Man(b1-4)GlcNAc(b1-4)GlcNAc
# Method in brief: as §1
# [32] = molecular target: Man(a1-2)Man(a1-6)[Man(a1-3)]Man(a1-6)[Man(a1-2)Man(a1-2)Man(a1-3)]Man
# Method in brief: as §1
binder,measurement,setting,value
B1,glycan array binding signal (z-score),[1],-0.155
same,glycan array binding signal (z-score),[2],0.745
same,glycan array binding signal (z-score),[3],-0.012
same,glycan array binding signal (z-score),[4],2.35
same,glycan array binding signal (z-score),[5],-1.27
same,glycan array binding signal (z-score),[6],-1.72
same,glycan array binding signal (z-score),[7],-0.206
same,glycan array binding signal (z-score),[8],-0.651
same,glycan array binding signal (z-score),[9],0.15
same,glycan array binding signal (z-score),[10],3.8
same,glycan array binding signal (z-score),[11],0.708
same,glycan array binding signal (z-score),GlcNAc(b1-3)Gal,0.243
same,glycan array binding signal (z-score),[12],3.22
same,glycan array binding signal (z-score),GlcNAc(b1-3)Gal(b1-4)Glc,-0.001
same,glycan array binding signal (z-score),[13],-1.38
same,glycan array binding signal (z-score),[14],-0.848
same,glycan array binding signal (z-score),GlcNAc(b1-3)GalNAc,-0.689
same,glycan array binding signal (z-score),GlcNAc(b1-3)Man,0.612
same,glycan array binding signal (z-score),[15],2.23
same,glycan array binding signal (z-score),[16],-0.627
same,glycan array binding signal (z-score),[17],0.479
same,glycan array binding signal (z-score),[18],0.032
same,glycan array binding signal (z-score),GlcNAc(b1-4)GlcNAc,-0.666
same,glycan array binding signal (z-score),[19],-0.612
same,glycan array binding signal (z-score),[20],-1.53
same,glycan array binding signal (z-score),[21],-1.1
same,glycan array binding signal (z-score),[22],-0.522
same,glycan array binding signal (z-score),[23],-0.224
same,glycan array binding signal (z-score),GlcNAc(b1-6)GalNAc,-0.035
same,glycan array binding signal (z-score),GlcNAc3Prop(b1-4)GlcNAc,-1.19
same,glycan array binding signal (z-score),[24],0.604
same,glycan array binding signal (z-score),Kdn(a2-3)Gal(b1-3)GalNAc,0.66
same,glycan array binding signal (z-score),Kdn(a2-3)Gal(b1-3)GlcNAc,1.82
same,glycan array binding signal (z-score),Kdn(a2-3)Gal(b1-4)Glc,-0.938
same,glycan array binding signal (z-score),Kdn(a2-3)Gal(b1-4)GlcNAc,0.127
same,glycan array binding signal (z-score),[25],0.212
same,glycan array binding signal (z-score),Kdn(a2-6)Gal(b1-4)GlcNAc,0.104
same,glycan array binding signal (z-score),[26],-0.649
same,glycan array binding signal (z-score),[27],0.392
same,glycan array binding signal (z-score),Man(a1-2)Man(a1-3)Man,-0.181
same,glycan array binding signal (z-score),[28],-0.6
same,glycan array binding signal (z-score),[29],-0.856
same,glycan array binding signal (z-score),[30],-0.346
same,glycan array binding signal (z-score),[31],-0.244
same,glycan array binding signal (z-score),[32],-0.44

# A run of entries taken from the entries so far, as a working copy:
binder,measurement,setting,value
B1,glycan array binding signal (z-score),[19],-0.612
same,glycan array binding signal (z-score),[20],-1.53
